The source of these data is the supplement of paper PMC4604168 (melanoma cell lines).

Some of the results follow. Many values rest on one well or one pass, so single values are uncertain.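 Cells were imaged in 1,536-well plates, and nuclei stained with an antibody against cleaved PARP were counted against all DNA-stained nuclei to give the apoptosis fraction. Screening doses were chosen to leave most cells alive, and resting and induced cleaved-PARP levels differ strongly between cell lines.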

One assay relates to IPC-298. Kind of assay: cleaved PARP positive nuclei fraction relative to DMSO control; melanoma cells; higher = more apoptosis. To be noted: library dose: low library concentration; 72 h.
In the case of `CS(=O)(=O)CCNCc1ccc(-c2ccc3ncnc(Nc4ccc(OCc5cccc(F)c5)c(Cl)c4)c3c2)o1` [lapatinib] + COCC[n+]1c2c(n(Cc3cnccn3)c1C)C(=O)c1ccccc1C2=O [YM155] (first compound 0.8 µM, partner dose 0.0004 µM), the “cleaved PARP positive nuclei fraction” value was determined as 69%.

Take `CCCS(=O)(=O)Nc1ccc(F)c(C(=O)c2c[nH]c3ncc(Cl)cc23)c1F` + Nc1nc(F)nc2c1ncn2[C@@H]1O[C@H](CO)[C@@H](O)[C@@H]1O [fludarabine] (first compound 0.08 µM, partner dose 0.2 µM): the “cleaved PARP positive nuclei fraction” value came out at 178%.

Turning to `Cc1cc(Nc2cc(N3CCN(C)CC3)nc(/C=C/c3ccccc3)n2)n[nH]1` + CO[C@H]1C[C@@H]2CC[C@@H](C)[C@@](O)(O2)C(=O)C(=O)N2CCCC[C@H]2C(=O)O[C@H]([C@H](C)C[C@@H]2CC[C@@H](OCCO)[C@H](OC)C2)CC(=O)[C@H](C)/C=C(\C)[C@@H](O)[C@@H](OC)C(=O)[C@H](C)C[C@H](C)/C=C/C=C/C=C/1C [everolimus] (first compound 0.04 µM, partner dose 0.02 µM), the “cleaved PARP positive nuclei fraction” value was 381%.

With `CCCS(=O)(=O)Nc1ccc(F)c(C(=O)c2c[nH]c3ncc(Cl)cc23)c1F` + Nc1ncn([C@H]2C[C@H](O)[C@@H](CO)O2)c(=O)n1 [decitabine] (first compound 0.08 µM, partner dose 0.1 µM), the “cleaved PARP positive nuclei fraction” value came to 137%.

Another assay concerns IST-MEL1. The description is as above. Conditions: library dose: low library concentration; 72 h.
As for `Cn1c(=O)n(-c2ccc(C(C)(C)C#N)cc2)c2c3cc(-c4cnc5ccccc5c4)ccc3ncc21` + CN1CCN(c2ccc3nc(-c4c(N)c5c(F)cccc5[nH]c4=O)[nH]c3c2)CC1 [Dovitinib] (first compound 0.004 µM, partner dose 0.1 µM), the “cleaved PARP positive nuclei fraction” value is 191%.

In the case of `O=C(O)c1ccc2c(c1)nc(Nc1cccc(Cl)c1)c1ccncc12` + COc1ccc(Cl)c(Nc2nc3ccccc3nc2NS(=O)(=O)c2cccc(NC(=O)C(C)(C)N)c2)c1 [XL147] (first compound 0.4 µM, partner dose 0.8 µM), the “cleaved PARP positive nuclei fraction” value is 139%.

Take `CNC(=O)c1cc(Oc2ccc(NC(=O)Nc3ccc(Cl)c(C(F)(F)F)c3)cc2)ccn1` [sorafenib] + OCc1c[nH]c2ccccc12 [Indole-3-carbinol] (first compound 0.4 µM, partner dose 0.8 µM): the “cleaved PARP positive nuclei fraction” value amounted to 74.4%.

For `CO[C@H]1C[C@@H]2CC[C@@H](C)[C@@](O)(O2)C(=O)C(=O)N2CCCC[C@H]2C(=O)O[C@H]([C@H](C)C[C@@H]2CC[C@@H](OCCO)[C@H](OC)C2)CC(=O)[C@H](C)/C=C(\C)[C@@H](O)[C@@H](OC)C(=O)[C@H](C)C[C@H](C)/C=C/C=C/C=C/1C` [everolimus] + O=C(O)c1ccc2c(c1)nc(Nc1cccc(Cl)c1)c1ccncc12 [CX4945] (first compound 0.02 µM, partner dose 0.4 µM), the “cleaved PARP positive nuclei fraction” value turned out to be 93%.

Regarding `Cn1c(=O)n(-c2ccc(C(C)(C)C#N)cc2)c2c3cc(-c4cnc5ccccc5c4)ccc3ncc21` + O=C(O)c1ccc2c(c1)nc(Nc1cccc(Cl)c1)c1ccncc12 [CX4945] (first compound 0.004 µM, partner dose 0.4 µM), the “cleaved PARP positive nuclei fraction” value was determined as 102%.

Regarding `CNC(=O)c1cc(Oc2ccc(NC(=O)Nc3ccc(Cl)c(C(F)(F)F)c3)cc2)ccn1` [sorafenib] + Cn1c(Nc2ccc(C(F)(F)F)cc2)nc2cc(Oc3ccnc(-c4ncc(C(F)(F)F)[nH]4)c3)ccc21 [CHIR265] (first compound 0.4 µM, partner dose 0.08 µM), the “cleaved PARP positive nuclei fraction” value was determined as 245%.

Regarding `Cc1cc(Nc2cc(N3CCN(C)CC3)nc(/C=C/c3ccccc3)n2)n[nH]1` + NC1(c2ccc(-c3nc4ccn5c(=O)[nH]nc5c4cc3-c3ccccc3)cc2)CCC1 [MK2206] (first compound 0.04 µM, partner dose 0.4 µM), the “cleaved PARP positive nuclei fraction” value is 71%.

`CC(C)C[C@H](NC(=O)[C@H](Cc1ccccc1)NC(=O)c1cnccn1)B(O)O` [Bortezomib] + CS(=O)(=O)CCNCc1ccc(-c2ccc3ncnc(Nc4ccc(OCc5cccc(F)c5)c(Cl)c4)c3c2)o1 [lapatinib] (first compound 0.001 µM, partner dose 0.8 µM): the “cleaved PARP positive nuclei fraction” value was 91.9%.

Regarding `CO[C@H]1C[C@@H]2CC[C@@H](C)[C@@](O)(O2)C(=O)C(=O)N2CCCC[C@H]2C(=O)O[C@H]([C@H](C)C[C@@H]2CC[C@@H](OCCO)[C@H](OC)C2)CC(=O)[C@H](C)/C=C(\C)[C@@H](O)[C@@H](OC)C(=O)[C@H](C)C[C@H](C)/C=C/C=C/C=C/1C` [everolimus] + Cn1nnc2c(C(N)=O)ncn2c1=O [temozolomide] (first compound 0.02 µM, partner dose 2 µM), the “cleaved PARP positive nuclei fraction” value came to 85.5%.
